Results reported in PMC8967206, “Pyrimidine-5-carbonitrile based potential anticancer agents as apoptosis inducers through PI3K/AKT axis inhibition in leukaemia K562” (Journal of Enzyme Inhibition and Medicinal Chemistry, 2022).

Experiments:
in vitro = details: human
[1] = tested on: leukaemia (K562) cell line; test: MTT colorimetric cytotoxicity assay, K562; details: Homo sapiens, K562, 48 h, read-out: Cytotoxicity in IC50, K562
[2] = tested on: breast cancer (MCF-7) cell line; test: MTT colorimetric cytotoxicity assay, MCF-7; details: Homo sapiens, MCF7, 48 h, read-out: Cytotoxicity in IC50, MCF-7
[3] = tested on: normal fibroblast cell line (WI-38); test: Cytotoxicity on normal fibroblast cell line; details: WI-38 versus K562

SMILES: CN[C@@H]1C[C@H]2O[C@@](C)([C@@H]1OC)n1c3ccccc3c3c4c(c5c6ccccc6n2c5c31)C(=O)NC4 [Staurosporine, reference compound]
- IC50 (in vitro): 22.8 ± 1.38 µM
- IC50 [1]: 11.6 ± 0.55 µM
- IC50 [2]: 9.51 ± 0.52 µM
- SI (selectivity index) [3]: 1.97
